The nature of this data set: Relative helicity of the peptide core. The settings on record: scale of 1 to 5, least helical to most helical. Set-up: key: 1=unordered; 2=one turn; 3=loosened alpha or 310 helix; 4=stabilized α helix in water; 5=a full helix. Type of data set: physicochemical.

Peptide text beside a SMILES is read from it.

As for `CC[C@H](C)[C@H](NC(=O)[C@H](CC(C)C)NC(=O)[C@H](C)NC(=O)[C@H](CC(C)C)NC(=O)[C@H](C)NC(=O)[C@H](C)NC(=O)[C@H](CCC(N)=O)NC(=O)[C@H](CC(C)C)NC(=O)[C@H](CC(C(=O)O)C(=O)O)NC(=O)[C@H](CC(C(=O)O)C(=O)O)NC(=O)[C@H](CCC(=O)O)NC(=O)CN)C(=O)N[C@@H](CCCNC(=N)N)C(=O)N[C@@H](C)C(=O)N[C@@H](CCCCN)C(=O)N[C@@H](CO)C(=O)N[C@@H](CC(N)=O)C(N)=O` [alpha helix ConG, GEggLQAALALJRAKSN] (HELM PEPTIDE1{G.E.[O=C(O)C(C[C@H](N[*:1])C(=O)[*:2])C(=O)O].[O=C(O)C(C[C@H](N[*:1])C(=O)[*:2])C(=O)O].L.Q.A.A.L.A.L.I.R.A.K.S.N.[am]}$$$$V2.0), the Helicity was 5. For `CC[C@H](C)[C@H](NC(=O)[C@H](CCC(N)=O)NC(=O)[C@H](CO)NC(=O)[C@@H](NC(=O)[C@H](CC(N)=O)NC(=O)[C@H](CO)NC(=O)[C@H](CCC(N)=O)NC(=O)[C@H](CC(C)C)NC(=O)[C@H](CC(C(=O)O)C(=O)O)NC(=O)[C@H](CC(C(=O)O)C(=O)O)NC(=O)[C@H](CCC(=O)O)NC(=O)CN)C(C)C)C(=O)N[C@@H](CCCNC(=N)N)C(=O)N[C@@H](C)C(=O)N[C@@H](CCCCN)C(=O)N[C@@H](CO)C(=O)N[C@@H](CC(N)=O)C(N)=O` [310 helix ConG] (HELM PEPTIDE1{G.E.[O=C(O)C(C[C@H](N[*:1])C(=O)[*:2])C(=O)O].[O=C(O)C(C[C@H](N[*:1])C(=O)[*:2])C(=O)O].L.Q.S.N.V.S.Q.I.R.A.K.S.N.[am]}$$$$V2.0) the value was 3.

The values above are taken from patent US6511963B1 (priority 1992, dated 2003).
